The target of data set [1] is T1, RC3H1-N1 (Roquin-1, RING and ROQ domains) (Homo sapiens) (UniProt Q5TC82).
T1 sequence (looked up): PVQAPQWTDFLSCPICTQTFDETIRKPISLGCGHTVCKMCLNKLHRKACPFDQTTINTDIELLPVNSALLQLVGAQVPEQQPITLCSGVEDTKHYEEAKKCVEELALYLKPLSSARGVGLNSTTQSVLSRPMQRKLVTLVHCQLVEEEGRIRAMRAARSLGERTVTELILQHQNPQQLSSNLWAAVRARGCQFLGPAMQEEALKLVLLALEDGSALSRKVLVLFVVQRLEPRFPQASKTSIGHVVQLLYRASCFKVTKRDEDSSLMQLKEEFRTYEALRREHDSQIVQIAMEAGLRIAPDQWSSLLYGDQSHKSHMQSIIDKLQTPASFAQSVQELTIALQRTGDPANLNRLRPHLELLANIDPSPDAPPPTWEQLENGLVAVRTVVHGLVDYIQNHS
The experiment in a line: EMSA. To be noted: same buffer, bound poorly, purified recombinant protein, label: 5'-32P.

The target of data set [2] is T2, RC3H1 (Roquin-1) full length (Homo sapiens) (UniProt Q5TC82).
T2 sequence (looked up, limits assumed): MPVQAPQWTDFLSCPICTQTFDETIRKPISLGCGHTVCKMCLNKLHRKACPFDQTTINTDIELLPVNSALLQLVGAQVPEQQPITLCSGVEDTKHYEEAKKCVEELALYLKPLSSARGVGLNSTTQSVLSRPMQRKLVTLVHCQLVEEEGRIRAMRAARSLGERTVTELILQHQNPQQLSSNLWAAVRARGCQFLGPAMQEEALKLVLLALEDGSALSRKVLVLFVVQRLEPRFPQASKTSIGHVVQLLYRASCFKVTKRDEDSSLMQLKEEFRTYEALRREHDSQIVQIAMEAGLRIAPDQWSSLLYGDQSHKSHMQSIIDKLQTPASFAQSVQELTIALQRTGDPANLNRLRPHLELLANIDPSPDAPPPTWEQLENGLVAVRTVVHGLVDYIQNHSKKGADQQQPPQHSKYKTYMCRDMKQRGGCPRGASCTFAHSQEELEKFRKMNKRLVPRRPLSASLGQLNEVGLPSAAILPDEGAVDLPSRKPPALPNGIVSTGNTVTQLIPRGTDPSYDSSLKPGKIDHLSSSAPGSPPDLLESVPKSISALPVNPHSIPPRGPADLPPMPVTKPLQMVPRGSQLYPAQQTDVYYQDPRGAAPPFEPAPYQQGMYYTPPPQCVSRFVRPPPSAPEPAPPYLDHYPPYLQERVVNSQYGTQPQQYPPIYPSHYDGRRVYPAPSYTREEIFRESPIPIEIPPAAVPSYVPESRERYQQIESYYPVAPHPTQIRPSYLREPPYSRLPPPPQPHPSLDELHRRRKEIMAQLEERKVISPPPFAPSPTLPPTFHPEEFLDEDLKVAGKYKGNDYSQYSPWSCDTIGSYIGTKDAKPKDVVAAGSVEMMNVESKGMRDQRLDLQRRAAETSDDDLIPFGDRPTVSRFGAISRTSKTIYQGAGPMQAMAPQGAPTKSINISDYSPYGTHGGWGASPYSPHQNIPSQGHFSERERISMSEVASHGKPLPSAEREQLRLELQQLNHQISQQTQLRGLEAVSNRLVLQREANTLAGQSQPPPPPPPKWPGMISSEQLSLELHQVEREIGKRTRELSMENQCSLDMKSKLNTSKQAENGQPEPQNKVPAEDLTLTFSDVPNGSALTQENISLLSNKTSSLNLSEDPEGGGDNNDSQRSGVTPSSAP
The data set is described as follows: binding assay. To be noted: 4SU or 6SG metabolically incorporated; PAR-CLIP in HEK293; T to C transitions in upstream AU-rich sequence and loop; protein in cells; protein details: FLAG/HA, stable inducible in HEK293 Flp-In T-REx.

For part of these data: A weaker result is weaker than the reference pair of the same experiment. Protein sequences can lack the tags named with them. For part of these data: At least one result comes from cells or an extract, where the contact may be indirect.

Turning to “ACCCUUACAUUAUGUAUGAGGGA [A20 23 nt hairpin]”, the binding result in data set [1] (lower affinity than RC3H1-N2, variant of A20 37 nt) is “binds more weakly”.

As for “AUAUAUAAUAUACCCUUACAUUAUGUAUGAGGGAUUU [A20 37 nt]”, in data set [1], the binding result was “binds more weakly”. With “UACAUAUAUAAUAUACCCUUACAUUAUGUAUGAGGGAUUUUUUUAAAUUAUAUUGAAAU [A20 3'UTR PAR-CLIP site]”, the binding result in data set [2] is on record as “binds”.

For the origin of these results see patent US20170298359, “OLIGONUCLEOTIDE TARGETED TO THE A20-THREE PRIME UNTRANSLATED REGION” (Max-Delbrück-Centrum für Molekulare Medizin in …, published 2017).
